# Percent effect of library compounds

The chains behind the UniProt entries cited, without tags or fusion partners. Residues count along the entry.
UniProt P9WNZ1, whole entry: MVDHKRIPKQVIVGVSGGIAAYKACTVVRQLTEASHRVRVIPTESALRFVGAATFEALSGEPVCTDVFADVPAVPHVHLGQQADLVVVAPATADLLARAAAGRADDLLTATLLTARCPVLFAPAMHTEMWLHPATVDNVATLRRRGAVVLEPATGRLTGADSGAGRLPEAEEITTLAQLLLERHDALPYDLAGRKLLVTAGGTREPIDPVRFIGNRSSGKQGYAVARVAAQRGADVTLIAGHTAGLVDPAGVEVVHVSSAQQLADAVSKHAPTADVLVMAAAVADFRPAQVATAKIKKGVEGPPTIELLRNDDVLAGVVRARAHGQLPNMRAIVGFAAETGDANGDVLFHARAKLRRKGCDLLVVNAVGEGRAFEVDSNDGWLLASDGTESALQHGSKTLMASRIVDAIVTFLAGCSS
UniProt Q8IDJ8, 1-583: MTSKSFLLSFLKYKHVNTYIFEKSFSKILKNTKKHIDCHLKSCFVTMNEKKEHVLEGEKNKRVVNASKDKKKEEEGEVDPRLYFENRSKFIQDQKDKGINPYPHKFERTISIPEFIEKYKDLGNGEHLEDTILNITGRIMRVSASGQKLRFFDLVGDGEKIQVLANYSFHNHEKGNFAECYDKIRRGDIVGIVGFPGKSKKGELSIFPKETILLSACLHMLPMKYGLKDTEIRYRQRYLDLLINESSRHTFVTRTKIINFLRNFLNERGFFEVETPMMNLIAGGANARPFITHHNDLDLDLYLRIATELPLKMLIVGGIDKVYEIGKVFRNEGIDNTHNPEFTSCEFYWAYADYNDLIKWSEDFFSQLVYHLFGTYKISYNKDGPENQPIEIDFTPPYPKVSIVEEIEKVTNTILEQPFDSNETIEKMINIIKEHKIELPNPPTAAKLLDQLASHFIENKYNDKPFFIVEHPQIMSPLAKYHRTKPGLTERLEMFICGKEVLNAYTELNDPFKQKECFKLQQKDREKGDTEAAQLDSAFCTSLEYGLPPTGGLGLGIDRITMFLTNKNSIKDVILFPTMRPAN
UniProt A4I591, 1-473: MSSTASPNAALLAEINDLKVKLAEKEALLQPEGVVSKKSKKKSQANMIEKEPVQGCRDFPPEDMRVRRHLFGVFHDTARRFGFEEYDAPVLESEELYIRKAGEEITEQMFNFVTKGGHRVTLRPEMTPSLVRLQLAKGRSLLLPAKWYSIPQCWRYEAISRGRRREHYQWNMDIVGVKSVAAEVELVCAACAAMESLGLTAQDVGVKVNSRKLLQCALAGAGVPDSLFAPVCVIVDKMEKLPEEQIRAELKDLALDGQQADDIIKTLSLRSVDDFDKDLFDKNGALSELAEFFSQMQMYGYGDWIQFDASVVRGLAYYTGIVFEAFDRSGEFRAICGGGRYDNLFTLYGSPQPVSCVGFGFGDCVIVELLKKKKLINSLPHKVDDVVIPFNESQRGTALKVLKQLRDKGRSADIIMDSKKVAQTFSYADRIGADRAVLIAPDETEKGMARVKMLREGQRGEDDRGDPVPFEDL

A: 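Coenzyme A biosynthesis protein CoaBC, Mycobacterium tuberculosis (UniProt P9WNZ1). Enzyme assay of CoaBC with a phosphate dye (Biomol Green) read at 650 nm. Concentration: 30 µM. Higher reads as stronger inhibition, judged from the few compounds that gave an IC50. Most strong results did not repeat in a second test. Of about 67,000 compounds tested this way, about 40 (0.06%) reached 50% or more in at least one test.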
B: 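Enzyme assay of the cytosolic lysyl-tRNA synthetase in 384-well plates, read by luminescence. Target: Lysine-tRNA ligase, Plasmodium falciparum 3D7 (UniProt Q8IDJ8). Compounds at 30 µM. Higher reads as stronger inhibition, judged from the few compounds that gave an IC50. Size under these conditions: about 69,000 compounds, about 49 of them at 50% or above in at least one test.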
C: 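Histidine-tRNA ligase, Leishmania infantum (UniProt A4I591). Enzyme assay of histidyl-tRNA synthetase; the read-out is not stated. Compounds at 30 µM. Direction is inferred from retests: higher values go with stronger inhibition. The assay is labelled LdHisRS but filed under L. infantum. Of about 69,000 compounds tested this way, about 410 (0.6%) reached 50% or more in at least one test.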

The filed quantity is “Percent Effect” (%).
The controls that fix the scale are not given in the record; negative values are as filed.
Compounds were drawn at random from those tested, without regard to their results.
A dash means the value is not listed here; it may have been measured.

SMILES,A,B,C
Cn1nc(C(=O)NCc2cccnc2)c2c1CCS(=O)(=O)C2,-3.926%,-2.774%,8.621%
O=C(c1ccccn1)N1C[C@@H]2CC[C@H](C1)N(C(=O)CCc1ccsc1)C2,3.182%,0.2626%,10.38%
Cn1nc(C2CNCCO2)cc1CCOc1ccc(Cl)cc1 (stereo not shown),-12.39%,0.3433%,2.837%
CCOc1ccc(NC(C)C(=O)Nc2cc(C)no2)cc1 (stereo not shown),-3.571%,1.87%,13.54%
Cc1cnn(C2CCCN(C(=O)c3cc(Cl)c4c(c3)OCO4)C2)c1 (stereo not shown),4.962%,0.666%,-0.8696%
COCC(=O)N[C@H](C)c1c(-c2ccc(Cl)cc2)noc1C(=O)O,1.58%,12.66%,27.78%
c1cc(CN2CCC(c3nnc4n3CCCCC4)CC2)c2nonc2c1,11.65%,0.1822%,0%
O=C(NCCCn1cncn1)NCC(c1ccccc1)N1CCCC1 (stereo not shown),-6.41%,-1.56%,13.33%
Cc1noc(C)c1CN(C)CCC(=O)N1CCc2sccc2C1,9.518%,-1.663%,17.57%
CN(C)c1ncccc1CNC(=O)N1CCCC1c1cccs1 (stereo not shown),10.23%,0.02812%,-3.571%
CCCC(=O)N1Cc2ccccc2CC2(CCN(C)C2)C1 (stereo not shown),-2.632%,-4.692%,4.138%
COc1cccc(CN(C)C(=O)CCC(=O)c2ccccc2)c1OC,-3.273%,0.874%,6.452%
O=C(NC1CCN(c2ncccn2)CC1)c1cc2c([nH]c1=O)CCC2,6.699%,7.696%,13.33%
CSCC(=O)Nc1ncn(Cc2cccc(Br)c2)n1,8.652%,6.154%,23.08%
CC(=O)N1CCC(c2cncc(N3CCOCC3)n2)CC1,5.031%,1.144%,7.092%
CC(C)[C@H]1CN(Cc2ccccn2)C[C@@H]1NC(=O)CCS(C)(=O)=O,4.551%,-4.924%,-28.33%
CN(C)C(=O)N1CCN(c2cc(N3CCCC3CO)ncn2)CC1 (stereo not shown),-3.185%,1.006%,-2.073%
COc1cccc(OCC2CCCN(C(=O)c3ncoc3C3CC3)C2)c1 (stereo not shown),1.22%,-2.651%,17.6%
CN1CCN(C[C@@H]2CN(C(=O)NCC3CCCCC3)C[C@@H]2CO)CC1,1.015%,-2.25%,24.71%
CN(C)c1nccc(C2CCN(c3ncccn3)CC2)n1,-42.48%,0.6518%,11.43%
c1cc(-c2ccc3c(c2)CCC32CCN(c3nncs3)CC2)co1,5.795%,8.181%,75.81%
O=C(NCCc1ccncc1)c1ccc(S(=O)(=O)NC2CCC2)cc1,2.751%,3.089%,-9.836%
CC(=O)N(Cc1noc(C)n1)C1CCN(Cc2ccccc2C#N)C1 (stereo not shown),2.35%,0.8952%,2.703%
Cc1cnn(CC2CCCN2Cc2nc3ccccc3nc2C)c1 (stereo not shown),0.5128%,1.064%,10.67%
O=C(Nc1ccccc1)C1=CC2(CCNCC2)c2ccccc21,5.32%,0.7172%,14.63%
CC(C)=CCN1CCc2onc(-c3ccc(F)c(F)c3)c2C1,1.863%,1.282%,12.5%
CC(=O)Nc1nccn1Cc1ccccc1Cl,3.398%,1.617%,12.05%
COc1cccc2ncn(C(C)Cn3cccn3)c(=O)c12 (stereo not shown),-8.009%,3.979%,11.48%
Cc1cccn2cc(CN3CCCC(c4noc(C5CC5)n4)C3)nc12 (stereo not shown),-,2.904%,34.29%
Cc1ccc(CNC(=O)CN2CCCCC2Cn2cncn2)s1 (stereo not shown),1.044%,1.858%,10.34%
O=C1NCCCCC1NC(=O)N1CCCc2cc(F)ccc21 (stereo not shown),4.054%,2.079%,13.95%
CC(=O)c1cc(CN2C[C@@H](C(=O)O)[C@H](c3cccnc3)C2)cs1,-,2.019%,18.31%
COCCc1noc(CNC2CCSC2)n1 (stereo not shown),0%,0.9063%,17.14%
CN(C)C(=O)c1ccc(OC2CCCC2)cc1,6.813%,2.222%,11.43%
Cc1cccc(NC(=O)C2CCc3ccccc3N2)c1 (stereo not shown),18.83%,-0.2502%,24.66%
Cn1ccnc1C1CCCN(C(=O)c2cc(F)cc(F)c2)C1 (stereo not shown),0%,4.857%,15.96%
Cn1cc(CN2CCn3cc(CNC(=O)C4CCC4)nc3C2)cn1,0.1269%,-0.2136%,18.87%
CN(C)C(=O)c1n[nH]c2c1CN(CC1CCC1)C2,0%,4.107%,1.887%
O=C(c1ccoc1)N1CCC2(CC1)COC(COc1ccccn1)C2 (stereo not shown),6.542%,1.181%,9.211%
CC(O)CN1CCC(CNCc2ccccc2Cl)CC1 (stereo not shown),3.836%,2.388%,7.339%
CC(C)c1nn(C)c(N(C)C)c1CNCc1cccc2c1OCO2,-0.1304%,0.2778%,16.67%
O[C@H]1CCCC[C@@H]1N1CCN(CCCc2ccc3c(c2)OCO3)CC1,-11.9%,2.726%,11.48%
CC(C)(C)n1nnnc1CN(Cc1ccccc1)Cc1ccc(Cl)cc1,-8.159%,1.861%,12.77%
CCNC(=O)c1cccc(CNC(=O)c2cnc(C(C)(C)C)s2)c1,18.93%,-1.321%,16.87%
CCN(CC)S(=O)(=O)N1CCCC1c1nnc2n1CCCCC2 (stereo not shown),0.7782%,1.752%,8.108%
COc1ccc(OC)c(CNCCc2cc(F)cc3c2OCOC3)c1,-30.38%,5.476%,29.81%
Cc1cnn(CCCNC(=O)NCCS(=O)(=O)Nc2ccccc2)c1,2.886%,-0.122%,10.84%
CCn1ccnc1CN1CCN(c2nc(C)cc(OC)n2)CC1,-11.24%,-0.6511%,12.12%
CS(=O)(=O)N1CCC(CNC(=O)c2cnccn2)CC1,-1.018%,0.6501%,23.08%
CCc1nnc2n1CCN(C(=O)c1cn(-c3ccccc3)nn1)C2,9.855%,3.935%,13.83%
CN(Cc1cccnc1)CC1CCCN1c1cccnn1 (stereo not shown),1.795%,-0.4965%,16%
CCCn1nc(-c2nc(COc3ccccc3)no2)ccc1=O,0.9823%,4.334%,11.4%
O=C(CC1CC1)N[C@@H]1CN(Cc2ccccn2)C[C@@H]2CCCO[C@@H]21,-5.212%,1.793%,8.571%
CCC(CNC(=O)NC1CCN(C)CC1)Oc1ccccc1Cl (stereo not shown),-2.657%,-1.304%,-1.01%
CN1CCC2(CCCN(S(=O)(=O)c3ccc(-c4cnco4)s3)C2)C1 (stereo not shown),3.469%,5.932%,18.03%
Cc1noc(C)c1-c1nc(C2CCCN(CCC(N)=O)C2)ccc1CO (stereo not shown),-0.6849%,1.439%,10.74%
Cc1cc(C(=O)N2CCC(c3nccn3CCCN(C)C)CC2)no1,-30.49%,2.979%,15.38%
Cc1cnn(CC2CCCN2C(=O)CCCc2nc(C)no2)c1 (stereo not shown),5.263%,-4.283%,14.29%
Cc1cnc(N2CCC[C@@H]3CN(CC(=O)N(C)C)C[C@@H]32)nc1,-23.98%,-2.297%,14%
CC1CCCN(Cc2ccc(OCc3nccn3C)cc2)C1 (stereo not shown),-0.3871%,-1.152%,20.87%
O=C(COc1cccc2c1CCC2=O)NCC(F)(F)F,0.8264%,5.993%,13.39%
CC(=O)N1CCCC(c2ccc(C(=O)NC3CCCC3)cn2)C1 (stereo not shown),4.585%,0.9508%,4%
O=C1C(NS(=O)(=O)c2ccc(F)cc2F)CCN1Cc1ccccc1 (stereo not shown),0.2625%,0.7893%,6.78%
CN1CCN([C@@H]2CN(C(=O)Cc3ccsc3)[C@@H]3CCCO[C@H]23)CC1,5.092%,3.399%,2.632%
Cc1cc(CN2CCCC2)cc(Oc2ccc(C(F)(F)F)cn2)c1,1.711%,0.707%,21.92%
COc1ccc(Br)cc1Cn1nc(C(N)=O)ccc1=O,8.765%,3.246%,30.14%
Cc1noc(C2CN(S(C)(=O)=O)Cc3ccnn3C2)n1 (stereo not shown),-0.2037%,-1.802%,10.53%
COc1cccc2c1OCC(C(=O)NCCc1nnc(C)s1)C2 (stereo not shown),-1.585%,3.647%,21.98%
CCc1noc(C(C)N(C)CC(=O)Nc2ccc(C)cc2)n1 (stereo not shown),0.2132%,0.6375%,5.769%
COc1ccc(CCC(=O)N(C(C)C)C2CCOCC2)cc1,4.369%,5.079%,19.28%
O=C(O)C1(Cc2cccc(-c3cccs3)c2)CCCNC1 (stereo not shown),-3.154%,-0.6829%,1.449%
CN(C)S(=O)(=O)N1C[C@H]2CCC[C@@]2(COCc2ccccn2)C1,-2.114%,-2.131%,-17.65%
CC(O)CN1CCN(Cc2cccc(C(=O)N3CCCCC3)c2)CC1 (stereo not shown),7.908%,-2.135%,5.455%

The values are deposited in ChEMBL (CHEMBL3988442, “University of Dundee, Small-Polar-MMV Screening Library” (2021)).